The entries are a selection whose mix differs from that of the whole data set. Small differences around the control level are noise.

Protein sequences, listed by entry. Tags and fused reporters are not part of them. Lines headed by an entry give the natural chain unless they say otherwise; changes in a name come on top.
UniProt P0ADP7: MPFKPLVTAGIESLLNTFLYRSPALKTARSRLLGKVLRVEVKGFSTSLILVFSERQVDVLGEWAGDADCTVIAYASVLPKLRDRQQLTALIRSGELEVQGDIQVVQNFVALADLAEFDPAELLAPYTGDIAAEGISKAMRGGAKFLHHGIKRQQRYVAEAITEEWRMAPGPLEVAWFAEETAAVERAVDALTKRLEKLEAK

For one compound, log2 fold change results are on record in the supplement of paper PMC12819154, “High-throughput peptide-centric local stability assay extends protein–ligand identification to membrane proteins, tissues and bacteria” (Nature Structural & Molecular Biology, 2025).
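Also: lysate desalted by size exclusion to strip endogenous ATP, peptide intensities built from DIA-NN precursor signals, and peptides missing any value discarded before comparison.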

The target in the assay is UniProt P0ADP7. Briefly: log2 fold change of tryptic peptide abundance, ligand vs vehicle (limited proteolysis) (log2 ratio); higher = more trypsin-susceptible (destabilized). Conditions: peptide sequence: QQLTALIR; peptide start residue: 85; ligand concentration: 5 mM; sample: E. coli desalted lysate; replicate design: treated before aliquoting. The procedure:
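HT-PELSA: desalted E. coli K-12 BW25113 lysate (with 12 mM MgCl2) incubated with 5 mM ATP (pH 7) or water for 30 min at 25 C, then a 4 min trypsin pulse at 22 C. Peptides were quantified by DIA-MS (4 replicates). Value is the peptide log2 fold change (treated/control); negative = stabilized. Scale: negative = ligand-stabilized region.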
As for `Nc1ncnc2c1ncn2[C@@H]1O[C@H](COP(=O)(O)OP(=O)(O)OP(=O)(O)O)[C@@H](O)[C@H]1O` [adenosine 5'-triphosphate], the log2 fold change is 0.412.
